This is an account of results in PMC2832672.

Results are given in words; binding and its absence hold for the method and conditions named. In cells and extracts the contact can be indirect. Some binding calls cover weakened binding; strength is not graded here. For some of these results: Tags and fused reporters may be left off the sequences shown.

The target of test [1] is T1, GST::SXL fusion protein (Drosophila), P19339.
T1 chain: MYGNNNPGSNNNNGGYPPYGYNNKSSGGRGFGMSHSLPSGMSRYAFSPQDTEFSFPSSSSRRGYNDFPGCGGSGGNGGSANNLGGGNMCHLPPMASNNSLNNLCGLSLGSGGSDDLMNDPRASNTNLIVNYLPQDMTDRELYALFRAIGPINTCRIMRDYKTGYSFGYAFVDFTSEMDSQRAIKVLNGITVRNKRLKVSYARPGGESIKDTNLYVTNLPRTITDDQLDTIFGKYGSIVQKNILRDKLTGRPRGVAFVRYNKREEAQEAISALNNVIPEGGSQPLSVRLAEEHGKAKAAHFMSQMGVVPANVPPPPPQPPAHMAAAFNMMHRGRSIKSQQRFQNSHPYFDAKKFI
Briefly: pull-down; GST fusion proteins bound to glutathione sepharose beads, incubated with crude extracts of 3-8 hour embryos in NET buffer (150 mM NaCl, 50 mM Tris pH 7.5, 5 mM EDTA) with 0.5% NP-40; SNF detected by Western blot; only the target purified. The settings on record: remark: other sources report otherwise.

Test [2] has as its target T2, U2A', endogenous in embryo nuclear extracts (Drosophila (endogenous in embryos)) (UniProt Q9V4Q8).
T2 sequence: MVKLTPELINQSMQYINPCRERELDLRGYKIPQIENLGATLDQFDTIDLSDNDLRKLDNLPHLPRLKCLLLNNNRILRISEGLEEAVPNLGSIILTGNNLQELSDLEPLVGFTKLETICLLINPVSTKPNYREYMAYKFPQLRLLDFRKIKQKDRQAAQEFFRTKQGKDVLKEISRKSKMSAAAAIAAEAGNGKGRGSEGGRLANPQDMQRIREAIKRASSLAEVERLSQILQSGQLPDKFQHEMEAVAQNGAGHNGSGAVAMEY
In words: condition: only extract pretreated with RNase A and RNase T1; co-IP; as Figure 4B, but nuclear extract pretreated overnight at 4°C with RNase A and RNase T1; NET buffer with 0.5% NP-40.

In test [3] the target is T2, U2A', endogenous in embryo nuclear extracts (Drosophila (endogenous in embryos)). In words: co-IP; nuclear extracts of 3-18 hour embryos, NET buffer with 0.5% NP-40; immunoprecipitation with antibodies against PPS, U2A' or SNF, Western blot for SNF or U1-70K (Figure 4). For orientation: A western blot detects proteins with antibodies after separation by electrophoresis.

The target of test [4] is T3, Sans-fille (SNF), endogenous in embryo extracts (Drosophila (endogenous in embryos)) (UniProt P43332).
T3 sequence: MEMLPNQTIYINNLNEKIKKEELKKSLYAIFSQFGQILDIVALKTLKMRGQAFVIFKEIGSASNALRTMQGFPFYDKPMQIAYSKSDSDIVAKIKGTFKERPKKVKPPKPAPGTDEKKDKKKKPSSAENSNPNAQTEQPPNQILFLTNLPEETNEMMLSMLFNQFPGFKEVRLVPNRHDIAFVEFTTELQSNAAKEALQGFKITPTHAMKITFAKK
The test is described as above.

B1: Sans-fille (SNF), endogenous in embryo extracts, P43332 1-216 (protein)
chain: MEMLPNQTIYINNLNEKIKKEELKKSLYAIFSQFGQILDIVALKTLKMRGQAFVIFKEIGSASNALRTMQGFPFYDKPMQIAYSKSDSDIVAKIKGTFKERPKKVKPPKPAPGTDEKKDKKKKPSSAENSNPNAQTEQPPNQILFLTNLPEETNEMMLSMLFNQFPGFKEVRLVPNRHDIAFVEFTTELQSNAAKEALQGFKITPTHAMKITFAKK
On to B1, for which, in test [1], the binding entry was “binds”.

B2: Sans-fille (SNF), endogenous in embryo extracts (protein, UniProt P43332 1-216)
chain: MEMLPNQTIYINNLNEKIKKEELKKSLYAIFSQFGQILDIVALKTLKMRGQAFVIFKEIGSASNALRTMQGFPFYDKPMQIAYSKSDSDIVAKIKGTFKERPKKVKPPKPAPGTDEKKDKKKKPSSAENSNPNAQTEQPPNQILFLTNLPEETNEMMLSMLFNQFPGFKEVRLVPNRHDIAFVEFTTELQSNAAKEALQGFKITPTHAMKITFAKK
Consider B2, for which the binding result in test [2] is on record as “no binding”; in test [3] it was “binds”.

B3: U1-70K, endogenous in embryo nuclear extracts (protein, UniProt P17133 1-448)
chain: MTQYLPPNLLALFAAREPIPFMPPVDKLPHEKKSRGYLGVAKFMADFEDPKDTPLPKTVETRQERLERRRREKAEQVAYKLEREIALWDPTEIKNATEDPFRTLFIARINYDTSESKLRREFEFYGPIKKIVLIHDQESGKPKGYAFIEYEHERDMHAAYKHADGKKIDSKRVLVDVERARTVKGWLPRRLGGGLGGTRRGGNDVNIKHSGREDNERERERYRLEREREDREGPGRGGGSNGLDARPGRGFGAERRRSRSRERRDRERDRGRGAVASNGRSRSRSRERRKRRAGSRERYDEFDRRDRRDRERERDRDREREKKKKRSKSRERESSRERRERKRERRDRERGTGSGGDVKERKPDFRDMDVIKIKEEPVDDGYPTFDYQNATIKREIDDEDEEKYRPPPAHHNMFSVPPPPILGRGNASTNPNPDNGQQSSGDPSWWRQ
On to B3, for which the binding entry in test [4] is listed as “binds”.
